Results: PMC4901042
These are yes or no findings as the source states them, for the method shown. For part of these data: A result given as binding can be weak or reduced; the word gives no strength.

Tests used:
Assay in all cases: two-hybrid; Matchmaker Two-Hybrid System (Clontech); pGBKT7 (BD) and pGADT7 (AD) fusions cotransformed in yeast; SD/-Trp/-Leu/-His/-Ade/X-α-gal (40 μg/ml) with 5 mM 3-AT; grade by the number of clones
[1] = target: PtAGL24 (Poncirus trifoliata (trifoliate orange))
[2] = target: FLOWERING LOCUS (FLC) of Arabidopsis (Arabidopsis)
[3] = target: APETALA1 (AP1) of Arabidopsis, truncated version without the trans-activating C-terminus (Arabidopsis)

binding [1]: binds
binding [2]: no binding
binding [3]: binds
B1: AGAMOUS-LIKE 24 (AGL24) of Arabidopsis (protein, UniProt O82794 1-220)
chain: MAREKIRIKKIDNITARQVTFSKRRRGIFKKADELSVLCDADVALIIFSATGKLFEFSSSRMRDILGRYSLHASNINKLMDPPSTHLRLENCNLSRLSKEVEDKTKQLRKLRGEDLDGLNLEELQRLEKLLESGLSRVSEKKGECVMSQIFSLEKRGSELVDENKRLRDKLETLERAKLTTLKEALETESVTTNVSSYDSGTPLEDDSDTSLKLGLPSWE
